This is an account of results in patent publication US20260158156A1 (priority 2021, published 2026).

The data set is described as follows: general procedure: solution-phase peptide synthesis; perfluorophenyl active ester, DIPEA.

Consider “(S)-methyl 2-((2R, 3R)-3-((S)-1-((3R, 4S, 5S)-4-((S)-2-((tert-butoxycarbonyl)amino)-N, 3-dimethylbutanamido)-3-methoxy-5-methylheptanoyl)pyrrolidin-2-yl)-3-methoxy-2-methylpropanamido)-3-phenylpropanoate”, for which, for the setting “coupling step”, the step yield came out at 77%.

In turn, “(S)-methyl 2-((2R, 3R)-3-((S)-1-((5S, 8S, 11S, 14S, 15R)-14-((S)-sec-butyl)-8, 11-diisopropyl-15-methoxy-5, 7, 13-trimethyl-3, 6, 9, 12-tetraoxo-1-phenyl-2-oxa-4, 7, 10, 13-tetraazaheptadecan-17-oyl)pyrrolidin-2-yl)-3-methoxy-2-methyl propanamido)-3-phenylpropanoate” came in with a step yield (coupling step) of 88% yield.

With “(S)-2-((2R, 3R)-3-((S)-1-((3R, 4S, 5S)-4-((S)—N, 3-dimethyl-2-((S)-3-methyl-2-(methylamino)butanamido)butanamido)-3-methoxy-5-methylheptanoyl)-pyrrolidin-2-yl)-3-methoxy-2-methylpropanamido)-3-phenylpropanoic acid (MMAF)”, the step yield result (late stage modification step) is recorded as “˜100%”.

The substance “(S)-2-((2R, 3R)-3-((S)-1-((6S, 9S, 12S, 13R)-12-((S)-sec-butyl)-6, 9-diisopropyl-13-methoxy-2, 2, 5, 11-tetramethyl-4, 7, 10-trioxo-3-oxa-5, 8, 11-triazapenta-decan-15-oyl)pyrrolidin-2-yl)-3-methoxy-2-methylpropanamido)-3-phenylpropanoic acid” had a step yield (late stage modification step) of 85%.

In turn, “(18S, 59S)-18-((benzyloxy)carbonyl)-59-((S)-2-(4-(2, 5-dioxo-2, 5-dihydro-1H-pyrrol-1-yl)butanamido)propanamido)-3, 16, 21, 37, 53, 60, 63, 66, 69-nonaoxo-1-phenyl-2, 25, 28, 31, 34, 41, 44, 47, 50-nonaoxa-17, 22, 38, 54, 61, 64, 67, 70-octaaza” registered a step yield (coupling step) of 79%.

As for “(S)-methyl 2-((2R, 3R)-3-((S)-1-((3R, 4S, 5S)-4-((S)-2-((S)-2-((S)-2-amino-N-methylpropanamido)-3-methylbutanamido)-N, 3-dimethylbutanamido)-3-methoxy-5-methylheptanoyl)pyrrolidin-2-yl)-3-methoxy-2-methylpropanamido)-3-phenylpropanoate”, the step yield (late stage modification step) is given as 96% yield.

Where the note is “coupling step”, “(S)-methyl 2-((2R, 3R)-3-((S)-1-((6S, 9S, 12S, 13R)-12-((S)-sec-butyl)-6, 9-diisopropyl-13-methoxy-2, 2, 5, 11-tetramethyl-4, 7, 10-trioxo-3-oxa-5, 8, 11-triazapentadecan-15-oyl)pyrrolidin-2-yl)-3-methoxy-2-methylpropanamido)-3-phenylpropanoate” gave a step yield of 39%.
